Test results: PMC12631243
These are yes or no findings as the source states them, for the method shown. Binding seen in cells or lysates may run through a third protein.

By UniProt entry, the sequences of proteins in these tests, tags left out.
UniProt Q9Z2X8: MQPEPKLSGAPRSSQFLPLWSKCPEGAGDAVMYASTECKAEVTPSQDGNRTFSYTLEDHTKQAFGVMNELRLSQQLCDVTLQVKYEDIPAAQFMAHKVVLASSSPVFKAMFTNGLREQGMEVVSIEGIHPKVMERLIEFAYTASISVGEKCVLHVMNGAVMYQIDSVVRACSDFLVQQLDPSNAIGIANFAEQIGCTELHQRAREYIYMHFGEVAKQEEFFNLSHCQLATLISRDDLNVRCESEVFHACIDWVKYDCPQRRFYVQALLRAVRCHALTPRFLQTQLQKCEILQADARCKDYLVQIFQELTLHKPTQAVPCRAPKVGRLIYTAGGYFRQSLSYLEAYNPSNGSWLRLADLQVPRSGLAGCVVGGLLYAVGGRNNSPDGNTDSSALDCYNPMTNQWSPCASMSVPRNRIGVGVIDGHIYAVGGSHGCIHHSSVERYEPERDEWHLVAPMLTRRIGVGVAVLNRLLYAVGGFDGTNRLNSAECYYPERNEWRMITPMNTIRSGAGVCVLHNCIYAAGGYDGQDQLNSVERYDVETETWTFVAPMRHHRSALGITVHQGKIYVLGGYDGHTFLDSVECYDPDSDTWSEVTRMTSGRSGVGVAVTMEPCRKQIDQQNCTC

Key:
Assay in all cases: co-IP; Pierce Crosslink Magnetic IP/Co-IP Kit; antibody cross-linked to magnetic beads with DSS, incubated with cell lysate for 2 hours at room temperature, eluate detected by western blotting; lysate of atRAL-loaded 661W cells; which protein was precipitated is not told
[1] = target: Kelch-like ECH-associated protein 1 (KEAP1) (mouse (endogenous in 661W)) (UniProt Q9Z2X8)
[2] = target: T1, heme oxygenase-1 (HO-1) (mouse (endogenous in 661W)) (UniProt P14901)
T1 sequence: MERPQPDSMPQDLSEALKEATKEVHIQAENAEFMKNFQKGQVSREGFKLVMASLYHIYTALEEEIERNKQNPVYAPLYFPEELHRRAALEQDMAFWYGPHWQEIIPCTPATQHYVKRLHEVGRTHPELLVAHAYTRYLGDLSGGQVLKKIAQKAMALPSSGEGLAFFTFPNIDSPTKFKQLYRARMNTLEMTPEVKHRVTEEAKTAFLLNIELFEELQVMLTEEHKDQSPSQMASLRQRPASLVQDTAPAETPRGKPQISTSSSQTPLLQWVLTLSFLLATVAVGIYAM

[3] = target: T2, nuclear factor-erythroid 2-related factor-2 (NRF2) (mouse (endogenous in 661W)) (UniProt Q60795)
T2 sequence: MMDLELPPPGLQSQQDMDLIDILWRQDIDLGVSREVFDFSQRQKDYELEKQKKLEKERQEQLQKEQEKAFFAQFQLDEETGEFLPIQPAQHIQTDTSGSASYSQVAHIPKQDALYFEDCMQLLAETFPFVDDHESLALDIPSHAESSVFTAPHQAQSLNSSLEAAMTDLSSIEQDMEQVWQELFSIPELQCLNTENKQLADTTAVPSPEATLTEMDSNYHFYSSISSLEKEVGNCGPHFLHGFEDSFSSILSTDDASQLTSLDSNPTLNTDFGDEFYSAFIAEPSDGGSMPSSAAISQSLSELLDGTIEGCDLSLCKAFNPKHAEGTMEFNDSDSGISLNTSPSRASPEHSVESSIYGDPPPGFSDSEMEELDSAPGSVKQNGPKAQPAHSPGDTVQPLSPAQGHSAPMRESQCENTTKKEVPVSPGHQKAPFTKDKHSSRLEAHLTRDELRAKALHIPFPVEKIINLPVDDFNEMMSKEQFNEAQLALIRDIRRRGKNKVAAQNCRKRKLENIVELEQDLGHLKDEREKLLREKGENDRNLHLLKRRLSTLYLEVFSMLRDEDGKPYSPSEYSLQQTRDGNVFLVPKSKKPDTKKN

Measured: binding

B1: GSDME-N (N-terminal fragment of gasdermin E) (domain or fragment, UniProt Q9Z2D3 1-270)
chain: MFAKATRNFLKEVDAGGDLISVSHLNDSDKLQLLSLVTKKKRYWCWQRPKYQILSATLEDVLTEGHCLSPVVVESDFVKYESKCENHKSGAIGTVVGKVKLNVGGKGVVESHSSFGTLRKQEVDVQQLIQDAVKRTVNMDNLVLQQVLESRNEVLCVLTQKIMTTQKCVISEHVQSEETCGGMVGIQTKTIQVSATEDGTVTTDTNVVLEIPAATTIAYGIMELFVKQDGQFEFCLLQGKHGGFEHERKLDSVYLDPLAYREFAFLDMLD
no binding: [1] | [2] | [3]
